Measured values taken from patent US20250074896A1, “ARYLTETRAHYDROPYRIDAZINE DERIVATIVE OR SALT THEREOF AND INSECTICIDAL AGENT CONTAINING THE COMPOUND AND METHOD FOR USING SAME” (NIHON NOHYAKU CO., LTD., priority 2021, published 2025).
Some entries share one result that the patent states for a list of compounds.

Key:
Type in all cases: in vivo
[1] = tested on: Diamondback moth (Plutella xylostella); test: Insecticidal test on diamondback moth (dip treatment of Chinese cabbage seedlings with laid eggs); settings: dip about 30 seconds, 6 days after treatment, 25° C.
[2] = tested on: Small Brown Planthopper (Laodelphax striatellus); test: Insecticidal test on small brown planthopper (dipped rice seedlings, 3rd-instar larvae); settings: rice seedlings dipped 30 seconds, 8 days after inoculation
[3] = tested on: Western Flower Thrips (Frankliniella occidentalis); test: Insecticidal test on western flower thrips (kidney bean leaf pieces, hatched larvae); settings: 4 days after the treatment

COC(=O)N1C(=O)C(C(=O)Nc2ccc(Cl)cc2F)=C(O)CN1c1cnc(C#N)c(Cl)c1 [3-473]
A (the mortality rate is 100%): insecticidal efficacy (corrected mortality rate) against diamondback moth ([1]; 50 ppm) | insecticidal efficacy (corrected mortality rate) against diamondback moth ([1]; 500 ppm) | insecticidal efficacy (corrected mortality rate) against small brown planthopper ([2]; 50 ppm) | insecticidal efficacy (corrected mortality rate) against small brown planthopper ([2]; 500 ppm) | insecticidal efficacy (corrected mortality rate) against western flower thrips ([3]; 50 ppm) | insecticidal efficacy (corrected mortality rate) against western flower thrips ([3]; 500 ppm)

COC(=O)N1C(=O)C(C(=O)Nc2ccc(F)cc2)=C(O)CN1c1nc2ccccc2o1 [3-243]
A (the mortality rate is 100%): insecticidal efficacy (corrected mortality rate) against diamondback moth ([1]; 500 ppm) | insecticidal efficacy (corrected mortality rate) against small brown planthopper ([2]; 50 ppm) | insecticidal efficacy (corrected mortality rate) against small brown planthopper ([2]; 500 ppm) | insecticidal efficacy (corrected mortality rate) against western flower thrips ([3]; 500 ppm)

Cc1cc(N2CC(O)=C(C(=O)Nc3cccc(Cl)c3)C(=O)N2)cnc1C#N [1-379]
A (the mortality rate is 100%): insecticidal efficacy (corrected mortality rate) against diamondback moth ([1]; 50 ppm) | insecticidal efficacy (corrected mortality rate) against diamondback moth ([1]; 500 ppm) | insecticidal efficacy (corrected mortality rate) against small brown planthopper ([2]; 50 ppm) | insecticidal efficacy (corrected mortality rate) against small brown planthopper ([2]; 500 ppm) | insecticidal efficacy (corrected mortality rate) against western flower thrips ([3]; 50 ppm) | insecticidal efficacy (corrected mortality rate) against western flower thrips ([3]; 500 ppm)

COC(=O)N1C(=O)C(C(=S)Nc2cc(F)cc(F)c2)=C(O)CN1c1ccc(C#N)nc1 [4-90]
A (the mortality rate is 100%): insecticidal efficacy (corrected mortality rate) against diamondback moth ([1]; 50 ppm) | insecticidal efficacy (corrected mortality rate) against diamondback moth ([1]; 500 ppm) | insecticidal efficacy (corrected mortality rate) against small brown planthopper ([2]; 50 ppm) | insecticidal efficacy (corrected mortality rate) against small brown planthopper ([2]; 500 ppm) | insecticidal efficacy (corrected mortality rate) against western flower thrips ([3]; 50 ppm) | insecticidal efficacy (corrected mortality rate) against western flower thrips ([3]; 500 ppm)

COC(=O)N1C(=O)C(C(=O)Nc2ccccc2F)=C(O)CN1c1ccc(C#N)nc1 [3-420]
A (the mortality rate is 100%): insecticidal efficacy (corrected mortality rate) against diamondback moth ([1]; 500 ppm) | insecticidal efficacy (corrected mortality rate) against small brown planthopper ([2]; 50 ppm) | insecticidal efficacy (corrected mortality rate) against small brown planthopper ([2]; 500 ppm) | insecticidal efficacy (corrected mortality rate) against western flower thrips ([3]; 50 ppm) | insecticidal efficacy (corrected mortality rate) against western flower thrips ([3]; 500 ppm)

N#Cc1ncc(N2CC(O)=C(C(=O)Nc3ccc(F)cc3)C(=O)N2)cc1F [1-98]
A (the mortality rate is 100%): insecticidal efficacy (corrected mortality rate) against diamondback moth ([1]; 50 ppm) | insecticidal efficacy (corrected mortality rate) against diamondback moth ([1]; 500 ppm) | insecticidal efficacy (corrected mortality rate) against small brown planthopper ([2]; 50 ppm) | insecticidal efficacy (corrected mortality rate) against small brown planthopper ([2]; 500 ppm) | insecticidal efficacy (corrected mortality rate) against western flower thrips ([3]; 50 ppm) | insecticidal efficacy (corrected mortality rate) against western flower thrips ([3]; 500 ppm)

COC(=O)N1C(=O)C(C(=O)Nc2ccc(F)c(C#N)c2)=C(O)CN1c1ccc(Br)nc1 [3-401]
A (the mortality rate is 100%): insecticidal efficacy (corrected mortality rate) against diamondback moth ([1]; 500 ppm) | insecticidal efficacy (corrected mortality rate) against small brown planthopper ([2]; 50 ppm) | insecticidal efficacy (corrected mortality rate) against small brown planthopper ([2]; 500 ppm) | insecticidal efficacy (corrected mortality rate) against western flower thrips ([3]; 500 ppm)

COC(=O)N1C(=O)C(C(=O)Nc2ccc(F)cc2)=C(S)CN1c1ccc(C#N)nc1 [5-5]
A (the mortality rate is 100%): insecticidal efficacy (corrected mortality rate) against diamondback moth ([1]; 50 ppm) | insecticidal efficacy (corrected mortality rate) against diamondback moth ([1]; 500 ppm) | insecticidal efficacy (corrected mortality rate) against small brown planthopper ([2]; 50 ppm) | insecticidal efficacy (corrected mortality rate) against small brown planthopper ([2]; 500 ppm) | insecticidal efficacy (corrected mortality rate) against western flower thrips ([3]; 50 ppm) | insecticidal efficacy (corrected mortality rate) against western flower thrips ([3]; 500 ppm)

O=C(Nc1ccc(Br)cc1)C1=C(O)CN(c2ccc(Cl)nc2)NC1=O [1-84]
A (the mortality rate is 100%): insecticidal efficacy (corrected mortality rate) against diamondback moth ([1]; 500 ppm) | insecticidal efficacy (corrected mortality rate) against small brown planthopper ([2]; 500 ppm) | insecticidal efficacy (corrected mortality rate) against western flower thrips ([3]; 500 ppm)

N#Cc1ncc(N2CC(O)=C(C(=O)Nc3ccc(Cl)cc3F)C(=O)N2)cc1Cl [1-223]
A (the mortality rate is 100%): insecticidal efficacy (corrected mortality rate) against diamondback moth ([1]; 500 ppm) | insecticidal efficacy (corrected mortality rate) against small brown planthopper ([2]; 50 ppm) | insecticidal efficacy (corrected mortality rate) against small brown planthopper ([2]; 500 ppm) | insecticidal efficacy (corrected mortality rate) against western flower thrips ([3]; 500 ppm)

N#Cc1cccc(NC(=O)C2=C(O)CN(c3cnc(C#N)c(Cl)c3)NC2=O)c1 [1-216]
A (the mortality rate is 100%): insecticidal efficacy (corrected mortality rate) against diamondback moth ([1]; 50 ppm) | insecticidal efficacy (corrected mortality rate) against diamondback moth ([1]; 500 ppm) | insecticidal efficacy (corrected mortality rate) against small brown planthopper ([2]; 50 ppm) | insecticidal efficacy (corrected mortality rate) against small brown planthopper ([2]; 500 ppm) | insecticidal efficacy (corrected mortality rate) against western flower thrips ([3]; 50 ppm) | insecticidal efficacy (corrected mortality rate) against western flower thrips ([3]; 500 ppm)

COc1cc(N2CC(O)=C(C(=O)Nc3ccc(F)c(F)c3)C(=O)N2)cnc1C#N [1-277]
A (the mortality rate is 100%): insecticidal efficacy (corrected mortality rate) against diamondback moth ([1]; 50 ppm) | insecticidal efficacy (corrected mortality rate) against diamondback moth ([1]; 500 ppm) | insecticidal efficacy (corrected mortality rate) against small brown planthopper ([2]; 50 ppm) | insecticidal efficacy (corrected mortality rate) against small brown planthopper ([2]; 500 ppm) | insecticidal efficacy (corrected mortality rate) against western flower thrips ([3]; 50 ppm) | insecticidal efficacy (corrected mortality rate) against western flower thrips ([3]; 500 ppm)

Cc1cc(N2CC(O)=C(C(=O)Nc3ccc(F)c(F)c3)C(=O)N2)cnc1C#N [1-72]
A (the mortality rate is 100%): insecticidal efficacy (corrected mortality rate) against diamondback moth ([1]; 50 ppm) | insecticidal efficacy (corrected mortality rate) against diamondback moth ([1]; 500 ppm) | insecticidal efficacy (corrected mortality rate) against small brown planthopper ([2]; 50 ppm) | insecticidal efficacy (corrected mortality rate) against small brown planthopper ([2]; 500 ppm) | insecticidal efficacy (corrected mortality rate) against western flower thrips ([3]; 50 ppm) | insecticidal efficacy (corrected mortality rate) against western flower thrips ([3]; 500 ppm)

N#Cc1ccc(N2CC(O)=C(C(=O)Nc3ccc(Cl)c(Cl)c3)C(=O)N2)cn1 [1-69]
A (the mortality rate is 100%): insecticidal efficacy (corrected mortality rate) against diamondback moth ([1]; 500 ppm) | insecticidal efficacy (corrected mortality rate) against small brown planthopper ([2]; 500 ppm) | insecticidal efficacy (corrected mortality rate) against western flower thrips ([3]; 500 ppm)

O=C(Nc1ccc(F)cc1)C1=C(O)CN(c2ccc(C(F)(F)F)nc2)N(C(=O)c2ccc(F)cc2)C1=O [3-14]
A (the mortality rate is 100%): insecticidal efficacy (corrected mortality rate) against diamondback moth ([1]; 50 ppm) | insecticidal efficacy (corrected mortality rate) against diamondback moth ([1]; 500 ppm) | insecticidal efficacy (corrected mortality rate) against small brown planthopper ([2]; 50 ppm) | insecticidal efficacy (corrected mortality rate) against small brown planthopper ([2]; 500 ppm) | insecticidal efficacy (corrected mortality rate) against western flower thrips ([3]; 50 ppm) | insecticidal efficacy (corrected mortality rate) against western flower thrips ([3]; 500 ppm)

O=C(Nc1ccc(F)cc1)C1=C(S)CN(c2ccc(C(F)(F)F)nc2)N(C(=O)C2CC2)C1=O [5-3]
A (the mortality rate is 100%): insecticidal efficacy (corrected mortality rate) against diamondback moth ([1]; 50 ppm) | insecticidal efficacy (corrected mortality rate) against diamondback moth ([1]; 500 ppm) | insecticidal efficacy (corrected mortality rate) against small brown planthopper ([2]; 50 ppm) | insecticidal efficacy (corrected mortality rate) against small brown planthopper ([2]; 500 ppm) | insecticidal efficacy (corrected mortality rate) against western flower thrips ([3]; 50 ppm) | insecticidal efficacy (corrected mortality rate) against western flower thrips ([3]; 500 ppm)

N#Cc1ncc(N2CC(O)=C(C(=O)Nc3ccc(F)cc3)C(=O)N2C(=O)Oc2ccc([N+](=O)[O-])cc2)cc1Cl [3-463]
A (the mortality rate is 100%): insecticidal efficacy (corrected mortality rate) against diamondback moth ([1]; 50 ppm) | insecticidal efficacy (corrected mortality rate) against diamondback moth ([1]; 500 ppm) | insecticidal efficacy (corrected mortality rate) against small brown planthopper ([2]; 50 ppm) | insecticidal efficacy (corrected mortality rate) against small brown planthopper ([2]; 500 ppm) | insecticidal efficacy (corrected mortality rate) against western flower thrips ([3]; 50 ppm) | insecticidal efficacy (corrected mortality rate) against western flower thrips ([3]; 500 ppm)

O=C(Nc1ccc(F)cc1)C1=C(O)CN(c2ccc(Cl)cc2)NC1=O [1-29]
A (the mortality rate is 100%): insecticidal efficacy (corrected mortality rate) against diamondback moth ([1]; 50 ppm) | insecticidal efficacy (corrected mortality rate) against diamondback moth ([1]; 500 ppm) | insecticidal efficacy (corrected mortality rate) against small brown planthopper ([2]; 500 ppm) | insecticidal efficacy (corrected mortality rate) against western flower thrips ([3]; 500 ppm)

COC(=O)N1C(=O)C(C(=O)Nc2ccc(F)c(F)c2)=C(O)CN1c1ccc(C#N)cc1 [3-227]
A (the mortality rate is 100%): insecticidal efficacy (corrected mortality rate) against diamondback moth ([1]; 500 ppm) | insecticidal efficacy (corrected mortality rate) against small brown planthopper ([2]; 50 ppm) | insecticidal efficacy (corrected mortality rate) against small brown planthopper ([2]; 500 ppm) | insecticidal efficacy (corrected mortality rate) against western flower thrips ([3]; 50 ppm) | insecticidal efficacy (corrected mortality rate) against western flower thrips ([3]; 500 ppm)
